Results taken from patent US20020058275A1, “Compositions, kits, and methods for effecting adenine nucleotide modulation of DNA mismatch recognition proteins” (Thomas Jefferson University, priority 1997, published 2002).
No constants are given. Whether binding was seen depends on the method and setting. Binding seen in cells or lysates may run through a third protein. Some binding calls cover weakened binding; strength is not graded here.

The chains behind the UniProt entries cited, without tags or fusion partners. Residues count along the entry.
GST-hMSH2 fusion protein comprising hMSH2 amino acid residues 751-934 (P43246, residues 751-934): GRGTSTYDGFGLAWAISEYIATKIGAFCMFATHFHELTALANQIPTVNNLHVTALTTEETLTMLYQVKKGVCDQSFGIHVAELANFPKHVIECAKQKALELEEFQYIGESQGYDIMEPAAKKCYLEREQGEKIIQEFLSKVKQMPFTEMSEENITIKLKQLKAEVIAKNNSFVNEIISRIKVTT
wild type hMSH2 IVTT fragment comprising only the carboxy-terminal interaction region (P43246, residues 875-934): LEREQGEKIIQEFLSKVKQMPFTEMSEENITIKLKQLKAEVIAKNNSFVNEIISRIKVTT

Target: GST-hMSH2 fusion protein comprising hMSH2 amino acid residues 751-934 (human) (UniProt P43246)
Assay: GST pull-down with GST-hMSH2 (751-934)

binding: binds
Substance: wild type hMSH2 IVTT fragment comprising only the carboxy-terminal interaction region (from UniProt P43246 875-934)
